No constants are given. Whether binding was seen depends on the method and setting. In cells and extracts the contact can be indirect. Some results given as binding are weak or reduced against the parent protein; the word gives no strength. Sequences can lack the tags named with a protein.
Molecular target: T1, GST-RB large pocket (amino acids 379-928) (human) (UniProt P06400)
T1 sequence: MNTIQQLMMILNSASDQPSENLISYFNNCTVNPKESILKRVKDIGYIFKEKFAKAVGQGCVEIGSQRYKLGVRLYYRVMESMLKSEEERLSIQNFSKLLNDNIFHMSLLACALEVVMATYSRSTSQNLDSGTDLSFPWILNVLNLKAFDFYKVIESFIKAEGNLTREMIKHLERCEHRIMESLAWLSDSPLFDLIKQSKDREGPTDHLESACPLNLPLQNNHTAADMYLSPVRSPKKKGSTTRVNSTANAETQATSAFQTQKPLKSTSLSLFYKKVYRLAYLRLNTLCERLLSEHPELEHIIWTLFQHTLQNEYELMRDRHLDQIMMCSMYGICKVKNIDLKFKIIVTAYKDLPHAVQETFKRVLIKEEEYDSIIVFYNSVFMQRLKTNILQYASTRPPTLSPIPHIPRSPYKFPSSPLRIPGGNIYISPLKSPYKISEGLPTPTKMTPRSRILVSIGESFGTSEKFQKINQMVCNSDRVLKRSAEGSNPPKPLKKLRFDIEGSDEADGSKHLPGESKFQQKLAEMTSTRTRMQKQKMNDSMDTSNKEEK
Assay: pull-down; competition: purified GST-RBLP or GST-RBLP^G with constant myc-CDH1 C33A extract and increasing amounts of HA-E2F3/DP1 C33A extract; glutathione beads; western blot for myc and HA; only the target purified

By UniProt entry, the sequences of proteins in these tests, tags left out. Where a name states a change or a piece, a line headed by the entry shows the natural chain unless it says otherwise.
UniProt Q9UM11: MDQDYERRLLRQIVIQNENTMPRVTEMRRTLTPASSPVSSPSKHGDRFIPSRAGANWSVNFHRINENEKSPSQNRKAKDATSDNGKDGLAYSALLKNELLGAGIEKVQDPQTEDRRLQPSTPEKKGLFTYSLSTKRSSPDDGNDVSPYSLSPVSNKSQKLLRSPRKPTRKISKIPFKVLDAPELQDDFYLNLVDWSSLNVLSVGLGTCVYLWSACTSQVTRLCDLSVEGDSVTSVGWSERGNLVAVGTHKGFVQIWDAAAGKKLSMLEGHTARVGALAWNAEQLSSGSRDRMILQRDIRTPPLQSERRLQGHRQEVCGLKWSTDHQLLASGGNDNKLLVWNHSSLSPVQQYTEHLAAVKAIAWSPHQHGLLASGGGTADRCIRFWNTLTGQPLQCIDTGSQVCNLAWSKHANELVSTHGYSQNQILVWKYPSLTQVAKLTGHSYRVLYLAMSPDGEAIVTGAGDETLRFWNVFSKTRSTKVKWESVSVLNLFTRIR
UniProt O00716: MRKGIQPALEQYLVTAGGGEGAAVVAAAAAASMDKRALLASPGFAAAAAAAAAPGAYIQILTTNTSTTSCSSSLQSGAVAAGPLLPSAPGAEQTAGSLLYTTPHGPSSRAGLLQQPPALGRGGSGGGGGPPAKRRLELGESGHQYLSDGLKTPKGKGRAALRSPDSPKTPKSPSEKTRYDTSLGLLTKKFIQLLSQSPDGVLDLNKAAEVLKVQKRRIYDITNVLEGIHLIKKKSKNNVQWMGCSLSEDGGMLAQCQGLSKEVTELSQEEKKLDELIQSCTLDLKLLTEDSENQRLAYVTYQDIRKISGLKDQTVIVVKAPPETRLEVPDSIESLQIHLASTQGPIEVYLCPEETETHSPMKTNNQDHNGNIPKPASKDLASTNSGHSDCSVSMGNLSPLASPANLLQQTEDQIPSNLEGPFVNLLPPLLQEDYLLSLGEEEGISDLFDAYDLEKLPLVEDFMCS

With “myc tagged CDH1 (anaphase promoting complex targeting subunit) (from UniProt Q9UM11 1-496)” the binding was “binds”.
With “HA-E2F3/DP1 (from UniProt O00716 1-465; Q14186 1-410) (complex)” the binding was “binds”.

Reference: PMC5348811
